These results are taken from article PMC7652997, “Regulation of γ-Aminobutyrate (GABA) Utilization in Corynebacterium glutamicum by the PucR-Type Transcriptional Regulator GabR and by Alternative Nitrogen and Carbon Sources”.

The target in this series is T1, GabR (Corynebacterium glutamicum WT) (UniProt Q8NT36).
T1 sequence (looked up, limits assumed): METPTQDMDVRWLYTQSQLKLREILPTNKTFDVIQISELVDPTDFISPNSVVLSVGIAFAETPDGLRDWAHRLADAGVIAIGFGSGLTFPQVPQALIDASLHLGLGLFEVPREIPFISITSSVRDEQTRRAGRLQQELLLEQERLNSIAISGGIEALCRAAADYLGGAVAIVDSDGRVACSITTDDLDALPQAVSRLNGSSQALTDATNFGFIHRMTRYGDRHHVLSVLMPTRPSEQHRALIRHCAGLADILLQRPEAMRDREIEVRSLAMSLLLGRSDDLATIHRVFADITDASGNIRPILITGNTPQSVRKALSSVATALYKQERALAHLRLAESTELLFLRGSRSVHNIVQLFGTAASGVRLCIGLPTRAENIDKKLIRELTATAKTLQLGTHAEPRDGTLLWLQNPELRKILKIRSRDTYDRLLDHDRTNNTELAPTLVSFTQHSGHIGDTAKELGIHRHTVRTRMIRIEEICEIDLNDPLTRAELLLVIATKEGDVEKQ
The experiment in a line: EMSA. Conditions: 10 mM Tris-HCl pH 7.5, 50 mM NaCl, 5% glycerol, 0.005% Triton X-100, 20 min at room temperature, 100 ng DNA, 0-2.6 uM GabR monomer, native PAGE in TB buffer pH 8.2 on ice, recombinant protein, protein details: N-terminal His10 removed with TEV protease. (Mobility shift assays separate free from complexed probe on a gel.)

Where [1] appears, read: very poor shift, probe letters rebuilt from the primers and the genome.
Where [2] appears, read: full shift, probe letters rebuilt from the primers and the genome.

For at least one entry, the source does not settle the construct or the ends of the probe. A negative result means that nothing was seen under these conditions. Tags and fusion partners may be left off the protein sequences shown. A weaker result is weaker than the reference pair of the same experiment.

For “ATTTCACGGGGGACTTCAAAGAGGCCGAGGCCAAGGTGGAGGGAGGCGTCGATAAGCGCCTGCGGAACCTGTGGGAAGGTGAGGCCGGAGCCGAACCCGATCGCGATGACCCCTGCGTCGGCGAGTCGGTGTGCCCAATCGCGAAGCCCGTCGGGCGTTTCTGCGAAGGCGATGCCAACGGATAAGACCACGCTGTTGGGGCTGATGAAGTCGGTGGGGTCAACGAGTTCGCTGATTTGGATGACATCGAAGGTTTTGTTTGTGGGGAGAATTTCGCGGAGTTTGAGCTGGCTTTGGGTGTATAACCAGCGGACATCCATGTCTTGGGTTGGGGTTTCCATGGCGTTAAACTCCTGTCAATTA (double strand) [FA5]”, under setting [1], the binding result is “binds more weakly”. Turning to “GTATGAGAGATCTTCCACGGTTCCTCCTGTGAGGTGAGATACAAACTGTTGTCTAGGTGATGAGTATTCTCTCCGAGGCAACGAAGTTAATATGTCCATGAGGGCGAAGTTGTAGACAATATTTCGCCCATATGGATAATTGACAGGAGTTTAACGCCATGGAAACCCCAACCCAAGACATGGATGTCCGCTGGTTATACACCCAAAGCCAGCTCAAACTCCGCGAAATTCTCCCCACAAACAAAACCTTCGATGTCATCCAAATCAGCGAACTCGTTGACCCCACCGACTTCATCAGCCCCAACAGCGTGGTCTTATCCGTTGGCATCGCCTTCGCAGAAACGCCCGACGGGCTTCGCGATTGGGCACACCGACTCGCCGACGCAGGGGTCATCGCGATCGGGTTCGGCTCCGGCCTCACCTTCCCACAGGTTCCGCAGGCGCTTATCGACGCCTCCCTCCACCTTGGCCTCGGCCTCTTTGAAGTCCCCCGTGAAAT (double strand) [PgabT 500 bp]”, for the setting “partial shift at 80 nM, full at 240 nM monomer, probe letters rebuilt from the primers and the genome”, the binding result is listed as “binds”. On to “CTACAACTTCGCCCTCATGGACATATTAACT (double strand) [FS4]”, for which the binding result (not much stronger than negative control) is reported as “binds more weakly”. With “ATTTCACGGGGGACTTCAAAGAGGCCGAGGCCAAGGTGGAGGGAGGCGTCGATAAGCGCCTGCGGAACCTGTGGGAAGGTGAGGCCGGAGCCGAACCCGATCGCGATGACCCCTGCGTCGGCGAGTCGGTGTGCCCAATCGCGAAGCCCGTCGGGCGTTTCTGCGAAGGCGATGCCAACGGATAAGACCACGCTGTTGGGGCTGATGAAGTCGGTGGGGTCAACGAGTTCGCTGATTTGGATGACATCGAAGGTTTTGTTTGTGGGGAGAATTTCGCGGAGTTTGAGCTGGCTTTGGGTGTATAACCAGCGGACATCCATGTCTTGGGTTGGGGTTTCCATGGCGTTAAACTCCTGTCAATTATCCATATGGGCGAAATATTGTCTACAACTTCGCCCTCATG (double strand) [FA3]”, the binding result (partial shift, probe letters rebuilt from the primers and the genome) is given as “binds more weakly”.

For “GAGCAGTGCAGAGACTGGGACTGCAACGTCTTGGTTCTGCAGGATTGCGCGGGTGATGCGAGCAAGACCCATGCCGATGCCGTAGGAAGTGGAGCCCTTGGCGTCGATAATGTGATAGGCAGCGTCGCGGGTGTCTTCGAAAATTTTCTCTAGACGGCCCTCAAGCTCTGGGTCTTTGTCCAGCATTCGGCTAAGCGATACGCCTGCGATGGTCGCGGAGGACAGGACTGGAAGTTCAGTGTCGCCGTGTTCGCCGATGATGTAGGCGTGGACGGAGCTTGGTGCCACTTCGTAGAGTTCGCCCAGCATGTAGCGGAATCGAGCGGAGTCCAGGACAGTTCCGGAGCCGATCACGCGGTTCCATTCCAAGCCGGAGAATTTCCACACTGCGTAGGTCAGGATATCCACTGGGTTGGACGCCACGAGGAAGATGCCGTCGAATCCGCTGTCCATGACATCGCCGACGATGGATTTCATAATCTTGACGTTTTTGTCCAC (double strand) [NC1 (ldhA)]”, for the setting “no shift up to 320 nM monomer, probe letters rebuilt from the primers and the genome”, the binding result was “no binding”.

Consider “TAGGTGATGAGTATTCTCTCCGAGGCAACGAAGTTAATATGTCCATGAGGGCGAAGTTGTAGACAATATTTCGCCCATATGGATAATTGACAGGAGTTTAACGCCATGGAAACCCCAACCCAAGACATGGATGTCCGCTGGTTATACACCCAAAGCCAGCTCAAACTCCGCGAAATTCTCCCCACAAACAAAACCTTCGATGTCATCCAAATCAGCGAACTCGTTGACCCCACCGACTTCATCAGCCCCAACAGCGTGGTCTTATCCGTTGGCATCGCCTTCGCAGAAACGCCCGACGGGCTTCGCGATTGGGCACACCGACTCGCCGACGCAGGGGTCATCGCGATCGGGTTCGGCTCCGGCCTCACCTTCCCACAGGTTCCGCAGGCGCTTATCGACGCCTCCCTCCACCTTGGCCTCGGCCTCTTTGAAGTCCCCCGTGAAAT (double strand) [FA1]”, for which, under setting [2], the binding result is “binds”. “ATTTCACGGGGGACTTCAAAGAGGCCGAGGCCAAGGTGGAGGGAGGCGTCGATAAGCGCCTGCGGAACCTGTGGGAAGGTGAGGCCGGAGCCGAACCCGATCGCGATGACCCCTGCGTCGGCGAGTCGGTGTGCCCAATCGCGAAGCCCGTCGGGCGTTTCTGCGAAGGCGATGCCAACGGATAAGACCACGCTGTTGGGGCTGATGAAGTCGGTGGGGTCAACGAGTTCGCTGATTTGGATGACATCGAAGGTTTTGTTTGTGGGGAGAATTTCGCGGAGTTTGAGCTGGCTTTGGGTGTATAACCAGCGGACATCCATGTCTTGGGTTGGGGTTTCCATGGCGTTAAACTCCTGTCAATTATCCATATGGGCGAAATATTG (double strand) [FA4]”: under setting [1], the binding result is on record as “binds more weakly”. For “ATTTCACGGGGGACTTCAAAGAGGCCGAGGCCAAGGTGGAGGGAGGCGTCGATAAGCGCCTGCGGAACCTGTGGGAAGGTGAGGCCGGAGCCGAACCCGATCGCGATGACCCCTGCGTCGGCGAGTCGGTGTGCCCAATCGCGAAGCCCGTCGGGCGTTTCTGCGAAGGCGATGCCAACGGATAAGACCACGCTGTTGGGGCTGATGAAGTCGGTGGGGTCAACGAGTTCGCTGATTTGGATGACATCGAAGGTTTTGTTTGTGGGGAGAATTTCGCGGAGTTTGAGCTGGCTTTGGGTGTATAACCAGCGGACATCCATGTCTTGGGTTGGGGTTTCCATGGCGTTAAACTCCTGTCAATTATCCATATGGGCGAAATATTGTCTACAACTTCGCCCTCATGGACATATTAACTTCGTTGCC (double strand) [FA2]”, the binding result under setting [2] was “binds”.
